Experimental data: PubChem BioAssay AID504805 (Drosophila RNAi Screening Center, 2011)
Only reagents picked out of a larger screen are listed. 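Phenotypes are words from visual inspection of images, not measured scores.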

Purpose: 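Knock-downs that cause poly(A) RNA to build up in the nucleus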 (primary screen)
System: Drosophila S2R+ cells
Reagent: long dsRNA against Drosophila genes, 0.25 µg dsRNA per well
Time to read-out: 4 days
Measured: 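Microscope images of cells stained for poly(A) RNA with a fluorescent oligo-dT probe and for DNA, assessed visually, with a phenotype description given for each replicate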

With knock-down of bnl (GeneID 42356) the results were phenotype, replicate 1 = poly(A) RNA held back in the nucleus.
Knock-down of Rpn8 (GeneID 37894) resulted in: phenotype, replicate 1 = poly(A) RNA held back in the nucleus.
Silencing of RpS4 (GeneID 39484) came out at: phenotype, replicate 1 = poly(A) RNA held back in the nucleus; phenotype, replicate 2 = poly(A) RNA held back in the nucleus.
Silencing of Ns3 (GeneID 31097) gave: phenotype, replicate 1 = poly(A) RNA held back in the nucleus.
Depletion of CG31760 (GeneID 34642) resulted in: phenotype, replicate 1 = poly(A) RNA held back in the nucleus.
CG42361 (GeneID 37936) gave phenotype, replicate 1 = poly(A) RNA held back in the nucleus.
For asf1 (GeneID 40141), the values are phenotype, replicate 1 = poly(A) RNA held back in the nucleus.
Against Ilp4 (GeneID 39152), the entry reads phenotype, replicate 1 = poly(A) RNA held back in the nucleus.
BTBD9 (GeneID 32000) showed phenotype, replicate 1 = poly(A) RNA held back in the nucleus.
Against Saf-B (GeneID 42958), the values are phenotype, replicate 1 = poly(A) RNA held back in the nucleus; phenotype, replicate 2 = poly(A) RNA held back in the nucleus.
Knock-down of CG43795 (GeneID 5740629) resulted in: phenotype, replicate 1 = poly(A) RNA held back in the nucleus.
Depletion of RpL23 (GeneID 37628) came out at: phenotype, replicate 1 = poly(A) RNA held back in the nucleus.
Depletion of CCHa2 (GeneID 41648) gave: phenotype, replicate 1 = poly(A) RNA held back in the nucleus.
After knock-down of pyd (GeneID 41062) the results were phenotype, replicate 1 = poly(A) RNA held back in the nucleus.
Knock-down of CG15745 (retired record) (GeneID 32283) gave: phenotype, replicate 1 = poly(A) RNA held back in the nucleus.
fs(1)K10 (GeneID 47781) gave phenotype, replicate 1 = poly(A) RNA held back in the nucleus.
Knock-down of gw (GeneID 43808) gave: phenotype, replicate 1 = poly(A) RNA held back in the nucleus.
Atpalpha (GeneID 48971) showed phenotype, replicate 1 = poly(A) RNA held back in the nucleus.
Silencing of Sap130 (GeneID 39455) resulted in: phenotype, replicate 1 = poly(A) RNA held back in the nucleus.
Against Ho (GeneID 41407), the values are phenotype, replicate 1 = poly(A) RNA held back in the nucleus.
With knock-down of Rrp6 (GeneID 41798), the screen gave phenotype, replicate 1 = poly(A) RNA held back in the nucleus; phenotype, replicate 2 = poly(A) RNA held back in the nucleus.
For CG30377 (GeneID 50252), the values are phenotype, replicate 1 = poly(A) RNA held back in the nucleus.
Against Mct1 (GeneID 31198) the deposit lists phenotype, replicate 1 = poly(A) RNA held back in the nucleus.
Depletion of CG8924 (GeneID 32557) came out at: phenotype, replicate 1 = poly(A) RNA held back in the nucleus; phenotype, replicate 2 = poly(A) RNA held back in the nucleus.
With knock-down of Grip (GeneID 50391), the record shows phenotype, replicate 1 = poly(A) RNA held back in the nucleus.
CG14448 (GeneID 40497) showed phenotype, replicate 1 = poly(A) RNA held back in the nucleus.
Against Gpdh3 (GeneID 42624), the entry reads phenotype, replicate 1 = poly(A) RNA held back in the nucleus.
Against myd (GeneID 42303), the values are phenotype, replicate 1 = poly(A) RNA held back in the nucleus.
For tum (GeneID 36538), the values are phenotype, replicate 1 = cells much enlarged.
For CG15296 (GeneID 31986), the entry reads phenotype, replicate 1 = poly(A) RNA held back in the nucleus; phenotype, replicate 2 = poly(A) RNA held back in the nucleus.
MtnC (GeneID 42416) scored phenotype, replicate 1 = poly(A) RNA held back in the nucleus.
Depletion of CG7031 (GeneID 42704) came out at: phenotype, replicate 1 = poly(A) RNA held back in the nucleus.
RunxB (GeneID 33051) scored phenotype, replicate 1 = poly(A) RNA held back in the nucleus.
For CG12213 (GeneID 41447) the deposit lists phenotype, replicate 1 = poly(A) RNA held back in the nucleus.
For Sry-beta (GeneID 43570), the values are phenotype, replicate 1 = poly(A) RNA held back in the nucleus.
Depletion of mnb (GeneID 32771) came out at: phenotype, replicate 1 = poly(A) RNA held back in the nucleus.
RpLP0 (GeneID 40451) gave phenotype, replicate 1 = poly(A) RNA held back in the nucleus; phenotype, replicate 2 = poly(A) RNA held back in the nucleus.
fru (GeneID 42226) scored phenotype, replicate 1 = poly(A) RNA held back in the nucleus; phenotype, replicate 2 = poly(A) RNA held back in the nucleus.
For CG18536 (GeneID 37093), the entry reads phenotype, replicate 1 = RNA gathered at the nuclear rim.
After knock-down of Top3beta (GeneID 31565), the screen gave phenotype, replicate 1 = poly(A) RNA held back in the nucleus.
Depletion of CG12912 (GeneID 36075) resulted in: phenotype, replicate 1 = poly(A) RNA held back in the nucleus.
Against CG9098 (GeneID 33840) the deposit lists phenotype, replicate 1 = poly(A) RNA held back in the nucleus.
Against Acbp4 (GeneID 38781), the values are phenotype, replicate 1 = poly(A) RNA held back in the nucleus.
Nt5b (GeneID 32822) scored phenotype, replicate 1 = poly(A) RNA held back in the nucleus.
Against Traf-like (GeneID 32611), the values are phenotype, replicate 1 = poly(A) RNA held back in the nucleus.
anchor (GeneID 39965) gave phenotype, replicate 1 = poly(A) RNA held back in the nucleus.
